# Measurements from PubChem BioAssay AID445 (National Center for Advancing Translational Sciences (NCATS), 2006).
# The other results are listed elsewhere or left out. These are further read-outs of the screen, such as a control signal, another cell line or another target. No call is given for them. The list favours compounds with an active or inconclusive main result. The note in brackets gives the kind of curve behind each potency; many fits are weak.
# Test: IkB Signaling
# Settings: ABC-DLBCL IkBa-CBG/CBR dual luciferase ratio (green luciferase fused to IkBa over red control in OCI-Ly3 lymphoma cells), 4 h
# In short: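 In this assay, an IκBα–CBG68 fusion accumulates when IKK-driven degradation is blocked; native CBR normalizes for cell number. OCI-Ly3 cells were treated 4 h with compound and doxycycline, then green and red light read after Chroma-Glo addition.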
# [1] = measured here: control luc red channel unless noted
# [2] = measured here: IkB-luc green channel
# [3] = measured here: control luc red channel
smiles,measurement,setting,value
CCc1cccc(C)c1Nc1c(-c2cccc(O)c2)nc2cnccn12,AC50,[1],"0.1 µM [falling, full curve, poor fit]"
CCOc1ccccc1NC(=O)Cn1nc2c3cc(F)ccc3n(Cc3cccc(C)c3)cc-2c1=O,AC50,[1],"10 µM [falling, partial curve]"
CCC(=O)N1CCN(c2nc(C)nc3sc(C)c(C)c23)CC1,AC50,[1],"25.1 µM [falling, partial curve]"
CC1CCCN(c2csc3ccccc3c2=O)C1 (stereo not given),AC50,[1],"5.01 µM [falling, partial curve]"
CCCN(Cc1cccs1)C(=O)Nc1ccccc1C,AC50,[1],"31.6 µM [falling, single point]"
O=C(CN1CCN(S(=O)(=O)c2ccc(Br)cc2)CC1)Nc1ccc(F)cc1F,AC50,[1],"2.51 µM [falling, full curve]"
O=c1/c(=C\c2ccc3c(c2)OCO3)sc2n1CCCN=2,AC50,[1],"20 µM [falling, partial curve]"
Cc1nc2sccn2c(=O)c1S(=O)(=O)NCc1ccccc1,AC50,[1],"20 µM [falling, partial curve]"
COc1ccc(Nc2nnc(-c3ccc(C)c(S(=O)(=O)N4CCN(C)CC4)c3)c3ccccc23)cc1,AC50,[1],"15.8 µM [falling, partial curve]"
COc1ccc2sc(NC(=O)c3ccco3)nc2c1,AC50,[1],"2.51 µM [falling, full curve]"
Cc1ccc(C)c(N2CCN(C(=O)c3ccc4c(c3)c(C)c(C)n4C)CC2)c1,AC50,[1],"25.1 µM [falling, partial curve]"
CCOc1ccccc1C1CC(=O)NC(C)=C1C(=O)OCc1ccc(C)cc1 (stereo not given),AC50,[1],"39.8 µM [falling, single point]"
C=C(C)COc1ccc(-c2nc(N)ncc2Oc2ccccc2OCC)c(O)c1,AC50,[1],"5.01 µM [falling, partial curve]"
CCCCn1c(NC(=O)c2ccc(F)cc2)c(C#N)c2nc3ccccc3nc21,AC50,[2],"3.98 µM [rising, single point]"
same,AC50,[3],"0.501 µM [falling, full curve]"
Cc1oc2c(c1C(=O)Nc1ccc(Cl)cc1F)C1=NCCN1C=N2,AC50,[1],"12.6 µM [falling, partial curve]"
Cc1cccc(C)c1OCC(=O)N(Cc1ccc(Cl)cc1)CC1CCCO1 (stereo not given),AC50,[1],"12.6 µM [falling, single point]"
COc1ccc(OC)c(CNC(=O)CCCn2nc(C)c3c(C)n(-c4ccc(C)cc4)nc3c2=O)c1,AC50,[1],"5.01 µM [falling, partial curve]"
CCn1ccc2cc(S(=O)(=O)N3CCCN(C(=O)Nc4cc(Cl)ccc4C)CC3)ccc21,AC50,[1],"0.251 µM [falling, full curve]"
Cc1c(NC(=O)c2ccccc2N)cccc1C(=O)O,AC50,[2],"0.0794 µM [rising, full curve, poor fit]"
same,AC50,[3],"12.6 µM [falling, partial curve]"
C=CCOc1ccccc1/C=N/O,AC50,[1],"20 µM [falling, partial curve]"
O=C(/C=C/Nc1ccc(F)cc1)c1ccco1,AC50,[1],"15.8 µM [falling, partial curve]"
COc1ccc2c(c1)-c1nc(NC(=O)c3ccc(C)cc3)sc1CC2,AC50,[1],"7.94 µM [falling, partial curve]"
N#C/C(=C\c1c[nH]c2ccccc12)C(=O)c1ccc(O)c(O)c1,AC50,[1],"2.51 µM [falling, full curve]"
CC1CCN(C(=O)c2cc(-c3cccc(Cl)c3)on2)CC1,AC50,[1],"15.8 µM [falling, partial curve]"
COc1ccc(-c2noc(-c3ccc(NCCc4ccccc4)c([N+](=O)[O-])c3)n2)cc1OC,AC50,[1],"25.1 µM [falling, single point]"
COC(=O)c1ccc(Cl)cc1NC(=O)N(C)CCc1c(C)nn(C)c1C,AC50,[1],"6.31 µM [rising, single point]"
CCOC(=O)c1ccc(NC(=O)c2csc3c2CCCCC3)cc1,AC50,[1],"2.51 µM [falling, partial curve]"
Cc1ccc(-n2ccnc(NCCc3ccc(S(N)(=O)=O)cc3)c2=O)cc1C,AC50,[1],"2 µM [rising, partial curve] [measured here: IkB-luc green channel]"
CCC1CCCCN1C(=O)CSc1nc2c([nH]c3ccccc32)c(=O)n1-c1cccc(OC)c1 (stereo not given),AC50,[1],"39.8 µM [falling, partial curve]"
O=C(COc1ccccc1Cl)Nc1ccc(Cl)c(-c2nc3ccccc3o2)c1,AC50,[1],"15.8 µM [rising, partial curve]"
O=C(O)c1ccc2nc(-c3cc4cc(F)ccc4oc3=O)[nH]c2c1,AC50,[1],"0.0631 µM [falling, full curve]"
Cn1ccc2c(OCC(=O)NCc3ccccc3Cl)cccc2c1=O,AC50,[1],"39.8 µM [rising, single point] [measured here: IkB-luc green channel]"
CCc1ccc(CNC(=O)c2ccc3nc(C(C)C)oc3c2)cc1,AC50,[1],"10 µM [falling, partial curve]"
COc1ccc(OC(C)c2nc3ccccc3[nH]2)cc1 (stereo not given),AC50,[1],"15.8 µM [falling, partial curve]"
O=C(Nc1ccc2oc(-c3cccnc3)nc2c1)c1ccc(-c2ccccc2)o1,AC50,[1],"7.94 µM [falling, full curve]"
O=C(COC(=O)C1CCN(S(=O)(=O)c2cccs2)CC1)c1cc2ccccc2o1,AC50,[1],"7.94 µM [falling, partial curve]"
CCn1c(CCNC(=O)c2cccs2)nnc1SCC(=O)c1ccc(OC)cc1,AC50,[1],"12.6 µM [falling, partial curve]"
COc1ccc(-c2nn(CC(=O)Nc3ccccc3F)c3c2cnc2ccc(F)cc23)cc1,AC50,[1],"0.0398 µM [rising, full curve, poor fit]"
O=C(Nc1ccc(N2CCN(C(=O)c3ccc(Cl)cc3)CC2)cc1)c1ccc(Br)o1,AC50,[1],"10 µM [falling, partial curve]"
Cc1ccc(-c2nc(S(=O)(=O)c3ccc(C)cc3)c(N3CCN(c4ccccc4)CC3)o2)cc1,AC50,[1],"10 µM [rising, partial curve]"
CCOc1ccc(C2C(=O)N(C3CCCCCC3)CC(=O)N2CCc2ccccc2)cc1OC (stereo not given),AC50,[1],"1 µM [rising, partial curve]"
CCOc1ccc(C(=O)Nc2ccc(S(=O)(=O)N3CCCCC3c3cccnc3)cc2)cc1 (stereo not given),AC50,[1],"25.1 µM [falling, partial curve]"
CCc1cccc(C)c1NC(=O)Cn1c(=O)cc(C(F)(F)F)c2c(C)nn(C)c21,AC50,[1],"10 µM [falling, partial curve]"
Cc1ccc(C)c(S(=O)(=O)NCC(c2ccco2)S(=O)(=O)c2ccc(F)cc2)c1 (stereo not given),AC50,[1],"0.02 µM [rising, full curve, poor fit]"
Cc1ccc(N2CCN(C(=O)c3ccc4c(Cl)c5c(nc4c3)CCCC5)CC2)c(C)c1,AC50,[1],"10 µM [falling, partial curve]"
O=C(Nc1ccc(F)cc1F)c1c2c(nc3ccccc13)C(=O)N(C1CCCCC1)C2,AC50,[1],"3.16 µM [falling, single point]"
Cc1noc(C)c1S(=O)(=O)N(CC(=O)NCc1ccccc1Cl)c1ccc(C(C)C)cc1,AC50,[1],"7.94 µM [falling, partial curve]"
O=C(NCc1cccs1)C1CCN(C(=O)N2CCOc3ccccc32)CC1,AC50,[1],"0.398 µM [rising, full curve]"
O=C(Nc1c(-c2ccccc2)nc2ccccn12)c1ccc(Br)cc1,AC50,[1],"15.8 µM [falling, partial curve, poor fit]"
CC(C)(C)c1csc(NC2=NS(=O)(=O)c3ccccc32)n1,AC50,[1],"39.8 µM [falling, single point]"
O=C(CSc1nc2c([nH]c3ccccc32)c(=O)n1-c1ccccc1)c1ccccc1,AC50,[1],"1 µM [rising, full curve]"
COc1ccccc1NC(=O)C1CCN(S(=O)(=O)c2ccc3c(c2)oc(=O)n3C)CC1,AC50,[1],"20 µM [falling, single point]"
COc1cc(-c2nnc(SCC(=O)OC3CCCCC3)o2)cc(OC)c1OC,AC50,[1],"25.1 µM [falling, single point]"
CCC(CO)Nc1ncnc2c1cnn2-c1ccc(C)cc1 (stereo not given),AC50,[1],"12.6 µM [falling, partial curve]"
CCOCCCn1c(SCC(=O)Nc2cccc(OC)c2)nc2ccccc2c1=O,AC50,[1],"39.8 µM [falling, single point]"
O=C(NCc1ccc2c(c1)OCO2)c1ccc2c(c1)N(Cc1ccc(F)cc1)C(=O)c1ccccc1S2=O (stereo not given),AC50,[1],"1 µM [falling, partial curve]"
CCOCCc1nn2c(=O)cc(COC(=O)c3cccs3)nc2s1,AC50,[1],"10 µM [falling, partial curve]"
Cc1cccc(CN2C(=O)CC(c3ccc(Cl)cc3)c3c(C)nn(-c4nc(C)cc(C)n4)c32)c1 (stereo not given),AC50,[1],"15.8 µM [falling, partial curve]"
COc1ccccc1N(CC(=O)Nc1ccccc1F)S(C)(=O)=O,AC50,[1],"0.0316 µM [falling, full curve, poor fit]"
CCc1ccc(NC(=O)C(CC)n2nnc(C(=O)OC)c2C(=O)OC)cc1 (stereo not given),AC50,[1],"3.16 µM [rising, single point]"
CCCNc1nc(NCc2ccccc2OC)c2cnn(C)c2n1,AC50,[1],"3.98 µM [falling, partial curve, poor fit]"
CCN(CCCNC(=O)c1cc2c(=O)[nH]c3ccc(C)cc3c2s1)c1ccc(C)cc1,AC50,[1],"0.1 µM [rising, full curve, poor fit]"
Cn1c(/C(C#N)=C(\O)COc2ccc3ccccc3c2)nc2ccccc21,AC50,[1],"0.501 µM [rising, full curve]"

# Looked up one by one from the list above (4):
smiles,measurement,setting,value
Cc1ccc(C)c(N2CCN(C(=O)c3ccc4c(c3)c(C)c(C)n4C)CC2)c1,AC50,[1],"25.1 µM [falling, partial curve]"
Cc1noc(C)c1S(=O)(=O)N(CC(=O)NCc1ccccc1Cl)c1ccc(C(C)C)cc1,AC50,[1],"7.94 µM [falling, partial curve]"
O=C(Nc1ccc(F)cc1F)c1c2c(nc3ccccc13)C(=O)N(C1CCCCC1)C2,AC50,[1],"3.16 µM [falling, single point]"
O=C(Nc1ccc2oc(-c3cccnc3)nc2c1)c1ccc(-c2ccccc2)o1,AC50,[1],"7.94 µM [falling, full curve]"
